Laboratory results: PubChem BioAssay AID588590 (National Center for Advancing Translational Sciences (NCATS), 2011)
“And” between values parts separate entries of the source, which are not always exact repeats. Identical values can stand only once. About 4,000 (1%) of roughly 390,000 compounds were called active. Inconclusive means that the source gave no clear call. Such entries were picked first, then a sample of the others. The call rests on the fitted dose curve; in most records, active means well fitted inhibition curve with a large enough effect; inconclusive means small, poorly fitted or top-dose-only effect, or another doubt; inactive means no such curve, though single readings can be large or run the other way. Potencies beside an inconclusive call are fits to weak or partial responses and may not hold up.

Amino acid sequences for entries named in this document (tags omitted). A change or cut given only in a name is not applied to a line headed by its entry.
UniProt Q9UNA4: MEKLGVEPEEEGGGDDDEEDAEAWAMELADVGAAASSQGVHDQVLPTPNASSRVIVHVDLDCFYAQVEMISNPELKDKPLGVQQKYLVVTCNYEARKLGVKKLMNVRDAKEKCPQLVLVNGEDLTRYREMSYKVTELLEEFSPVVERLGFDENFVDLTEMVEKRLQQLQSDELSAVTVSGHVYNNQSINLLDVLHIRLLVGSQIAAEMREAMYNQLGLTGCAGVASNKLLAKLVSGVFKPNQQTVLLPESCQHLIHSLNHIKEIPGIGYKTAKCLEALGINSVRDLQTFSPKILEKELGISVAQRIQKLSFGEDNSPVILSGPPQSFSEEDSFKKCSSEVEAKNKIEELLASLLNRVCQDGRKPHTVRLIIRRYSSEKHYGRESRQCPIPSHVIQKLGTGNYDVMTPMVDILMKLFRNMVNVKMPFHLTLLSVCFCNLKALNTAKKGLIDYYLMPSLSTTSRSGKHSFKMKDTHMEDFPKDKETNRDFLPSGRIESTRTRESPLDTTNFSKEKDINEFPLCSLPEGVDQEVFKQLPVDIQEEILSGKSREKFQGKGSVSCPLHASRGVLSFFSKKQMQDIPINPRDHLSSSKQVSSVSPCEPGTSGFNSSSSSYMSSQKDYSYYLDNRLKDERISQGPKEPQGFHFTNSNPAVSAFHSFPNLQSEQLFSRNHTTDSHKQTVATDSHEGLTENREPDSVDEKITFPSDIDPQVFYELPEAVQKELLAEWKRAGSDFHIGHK

target: DNA polymerase iota (Homo sapiens) (UniProt Q9UNA4); assay: qHTS for Inhibitors of Polymerase Iota; conditions: Pol iota fluorescent replication assay, 10 min; series mostly up to 115 µM
How it was run: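 Pol iota at 10 nM preincubated 15 min with compounds at room temperature; reaction started with fluorescent substrate, 50 nM final. Fluorescence read kinetically at 0 and 10 min; buffer-only wells as negative control.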
Potency means the concentration at half of the fitted maximal effect.

Q: How did the Potency turn out when `COc1cccc(C(=O)OCC(=O)c2ccc(Br)s2)c1` was run?
A: inconclusive: 20 µM [inhibitor, full curve, poor fit]

Q: How did the Potency turn out when `CCOc1ccc(N(CC)S(=O)(=O)N2CCCC(C(=O)NCCc3ccccc3OC)C2)cc1` (centres undefined) was run?
A: inactive

Q: How did the Potency turn out when `COc1ccc2[nH]c(=O)c(-c3noc(-c4ccccc4)n3)cc2c1` was run?
A: inconclusive: 17.8 µM [inhibitor, partial curve, poor fit]

Q: With `CSc1ncc(C(=O)Nc2cccnc2)c(C(F)(F)F)n1` as the compound, how does the Potency read?
A: inconclusive: 89.1 µM [inhibitor, single point]

Q: `CCOC(=O)N1CCN(C(=O)COc2cccc3c2CCN(Cc2ccccc2F)C3=O)CC1` was tested. Which Potency did it give?
A: inconclusive: 112 µM [inhibitor, partial curve, poor fit]

Q: Which Potency does the source give for `O=C(N/N=C/c1ccco1)c1cccc(S(=O)(=O)Nc2ccccc2Cl)c1` here?
A: active: 44.7 µM

Q: For `CCCc1cc(=O)oc2cc(C)c(CN3CCCC3)c(O)c12`, which Potency is on record?
A: active: 5.01 µM

Q: For `CCN(CC)c1ccc(NC(=O)C2CCCC2)cc1`, which Potency is on record?
A: inconclusive: 39.8 µM [inhibitor, single point]

Q: For `Cc1ccc(O)c(C2=Nc3ccccc3N=C(c3cccc(F)c3)C2)c1`, which Potency is on record?
A: active: 89.1 µM

Q: `COc1ccc(N2C3=C(CC4=C2CCCC4=O)C(=O)CCC3)cc1` was tested. Which Potency did it give?
A: inconclusive: 11.2 µM [inhibitor, full curve, poor fit]

Q: For `CC(C)c1ccc(NC(=O)Cn2nnc(C(=O)NCc3cccs3)c2N)cc1`, which Potency is on record?
A: inconclusive: 79.4 µM [inhibitor, partial curve, poor fit]

Q: Which Potency does the source give for `CCCCn1c(SCC(=O)c2c(N)n(C3CC3)c(=O)[nH]c2=O)nc2cc(S(N)(=O)=O)ccc21` here?
A: inconclusive: 63.1 µM [inhibitor, partial curve, poor fit]

Q: `CCO[C@@H]1OC(C(=O)NCc2nc3ccccc3[nH]2)=C[C@H](C)[C@H]1CCCO` was tested. Which Potency did it give?
A: inconclusive: 31.6 µM [inhibitor, partial curve, poor fit]

Q: Which Potency does the source give for `Cc1cccc(N2C(=O)CC(Sc3ccccc3C(=O)O)C2=O)c1` (centres undefined) here?
A: inconclusive: 89.1 µM [inhibitor, partial curve, poor fit]

Q: With `CCn1c(CSc2nc3ccccc3[nH]2)nc2cc(C(=O)O)ccc21` as the compound, how does the Potency read?
A: inconclusive: 14.1 µM [inhibitor, partial curve, poor fit]

Q: For `O=C(N/N=C/c1ccc(C(=O)O)cc1)C1=NNC(c2ccccc2)(c2ccccc2)C1`, which Potency is on record?
A: inconclusive: 35.5 µM [inhibitor, partial curve, poor fit]

Q: How did the Potency turn out when `O=C(CCS(=O)(=O)c1ccc(Br)cc1)NC1CCCC1` was run?
A: inactive

Q: Which Potency does the source give for `Cc1ccc(N(CC(C)C)S(=O)(=O)c2nnc(NC(=O)c3cccs3)s2)cc1` here?
A: inactive

Q: With `O=c1[nH]c2c(s1)C=Nc1ccccc1N2` as the compound, how does the Potency read?
A: inconclusive: 25.1 µM [inhibitor, single point]

Q: Which Potency does the source give for `CNC(=O)CSc1nnc(NC(=O)Nc2ccccc2)s1` here?
A: inactive

Q: With `CCOc1ccc(OCC)c(Nc2nc3ccccc3n3nnnc23)c1` as the compound, how does the Potency read?
A: inactive

Q: Which Potency does the source give for `Cc1noc(C)c1-c1ccc2ncnc(NC(C)c3ccco3)c2c1` (centres undefined) here?
A: inconclusive: 12.6 µM [inhibitor, full curve, poor fit]

Q: How did the Potency turn out when `N#CN=C1SCCS1` was run?
A: inactive

Q: With `N#CC1=C(N)NC(SCc2ccc(Cl)cc2)=C(C#N)C12CCCCC2` as the compound, how does the Potency read?
A: inconclusive: 100 µM [inhibitor, partial curve, poor fit]

Q: For `COCCOC(=O)c1c(C)oc2ccc(NS(=O)(=O)c3ccc(C)cc3)cc12`, which Potency is on record?
A: inconclusive: 35.5 µM [inhibitor, partial curve]

Q: With `O=C(O)CSc1cc(NS(=O)(=O)c2cccc([N+](=O)[O-])c2)c2ccccc2c1O` as the compound, how does the Potency read?
A: active: 3.16 µM

Q: With `COc1ccc(-c2nc(NC(=O)C3CC(=O)N(c4ccc5c(c4)OCCO5)C3)sc2C)cc1` (centres undefined) as the compound, how does the Potency read?
A: inconclusive: 5.62 µM [inhibitor, partial curve, poor fit] and inconclusive: 56.2 µM [inhibitor, partial curve, poor fit]

Q: For `O=C(CN1C=NS(=O)(=O)c2ccccc21)Nc1ccc(Br)cc1`, which Potency is on record?
A: inactive

Q: For `Cc1cccc(-n2nnc(-c3nc(-c4cccs4)no3)c2N)c1C`, which Potency is on record?
A: inconclusive: 100 µM [inhibitor, partial curve, poor fit]

Q: Which Potency does the source give for `COc1ccc(Cn2nnnc2CN2CCc3ccccc3C2)cc1` here?
A: inconclusive: 39.8 µM [inhibitor, single point]

Q: Which Potency does the source give for `O=C(CSc1nc2c(c(=O)[nH]1)CCC2)Nc1cccc(O)c1` here?
A: inactive

Q: `COc1ccc(-c2nc(SCC(=O)NCc3nc4ccccc4n3C)n3[nH]c(=O)cc3n2)cc1` was tested. Which Potency did it give?
A: inconclusive: 89.1 µM [inhibitor, single point]

Q: `CC(C)(C)OC(=O)N1C[C@H](O)C[C@H]1C(=O)OCC(=O)c1ccc([N+](=O)[O-])cc1` was tested. Which Potency did it give?
A: inactive

Q: For `Cc1ccc(S(=O)(=O)NCCc2nnc3ccc(SCc4cccc(F)c4)nn23)cc1`, which Potency is on record?
A: inactive

Q: How did the Potency turn out when `COc1ccc(-n2nnnc2C2CCN(S(=O)(=O)c3cc(Cl)ccc3OC)CC2)cc1` was run?
A: inactive

Q: For `COc1ccc2c(c1)OC13CCCCC1C2C(C(=O)c1ccccc1)C(=O)N3` (centres undefined), which Potency is on record?
A: inconclusive: 70.8 µM [inhibitor, partial curve]

Q: With `CCCCCC(=O)Nc1nc2ccccc2[nH]1` as the compound, how does the Potency read?
A: inconclusive: 20 µM [inhibitor, partial curve]

Q: How did the Potency turn out when `Cc1cc(C(=O)NCc2ccco2)on1` was run?
A: inconclusive: 11.2 µM [inhibitor, full curve, poor fit]

Q: `CCc1[nH]c(=O)c(C#N)c2c1CCCC2` was tested. Which Potency did it give?
A: inactive

Q: Which Potency does the source give for `CCCCCN1C(C(=O)c2ccccc2)=C(NC(=O)c2ccc(OC)c(OC)c2)c2ccccc2S1(=O)=O` here?
A: inactive

Q: How did the Potency turn out when `CCOC(=O)c1c(NC(=O)CSc2nnc(C)c(=O)[nH]2)sc2c1CCC2` was run?
A: inconclusive: 2.51 µM [inhibitor, full curve, poor fit]

Q: For `O=C(O)c1ccc2c(=O)n3cc(C(=O)c4ccccc4O)cc(Cl)c3nc2c1`, which Potency is on record?
A: inconclusive: 31.6 µM [inhibitor, partial curve, poor fit]

Q: `Cc1ccc(S(=O)(=O)N(C)C)cc1NC(=O)c1cc(-c2ccco2)nc2ccccc12` was tested. Which Potency did it give?
A: active: 20 µM

Q: Which Potency does the source give for `Cc1ccc(S(=O)(=O)NC(=O)Nc2ccc(N(C)C)cc2)cc1` here?
A: inconclusive: 17.8 µM [inhibitor, single point]

Q: `CCc1nnc(NC(=O)C2Cc3ccccc3CN2S(=O)(=O)c2ccc(C)cc2)s1` (centres undefined) was tested. Which Potency did it give?
A: inconclusive: 12.6 µM [inhibitor, partial curve, poor fit]

Q: How did the Potency turn out when `Cc1cccc(C)c1NC(=O)COC(=O)c1ccc([N+](=O)[O-])o1` was run?
A: inconclusive: 39.8 µM [inhibitor, single point]

Q: For `CCN(CC)CCNc1ccc2nnc(CCNS(=O)(=O)c3ccc(C)cc3)n2n1`, which Potency is on record?
A: inconclusive: 44.7 µM [inhibitor, partial curve]

Q: How did the Potency turn out when `CC(=O)Nc1ccc(C(=O)Nc2nc(-c3cccnc3)cs2)cc1` was run?
A: inactive

Q: For `CCOc1ccc(N2C(=O)CC(Sc3nccc(C)n3)C2=O)cc1` (centres undefined), which Potency is on record?
A: inconclusive: 11.2 µM [inhibitor, single point]

Q: Which Potency does the source give for `Cc1cc(/C=C2\SC(=S)NC2=O)c(C)n1-c1ccc(O)cc1` here?
A: inconclusive: 50.1 µM [inhibitor, partial curve]

Q: How did the Potency turn out when `Cc1ccc2nc(NC(=O)c3ccc4ncsc4c3)sc2c1` was run?
A: inconclusive: 35.5 µM [inhibitor, full curve]

Q: Which Potency does the source give for `CCCCOc1ccc(-c2ncc(N)cn2)cc1` here?
A: inconclusive: 56.2 µM [inhibitor, partial curve, poor fit]

Q: `Cc1cc2oc(C(=O)N3CCN(CCc4ccccn4)CC3)c(C)c2cc1C` was tested. Which Potency did it give?
A: inconclusive: 10 µM [inhibitor, partial curve, poor fit]

Q: Which Potency does the source give for `COc1cc(Br)c(CC(=O)NO)cc1OC` here?
A: inactive

Q: Which Potency does the source give for `COc1ccc(OC)c(NC(=O)CSc2sc3c(O)cc(=O)[nH]c3c2C#N)c1` here?
A: inconclusive: 1.26 µM [inhibitor, full curve, poor fit]

Q: Which Potency does the source give for `Cc1ccc(NC(=O)CN2C(=O)CSc3ccc(S(=O)(=O)N(C)C)cc32)cc1C` here?
A: inactive

Q: Which Potency does the source give for `COc1ccc2c(c1)c1nnc(SCCN3CCOCC3)nc1n2C` here?
A: inactive

Q: How did the Potency turn out when `Cc1ccc(N=Cc2cc(Br)cc(Cl)c2O)cc1` was run?
A: inconclusive: 15.8 µM [inhibitor, partial curve]

Q: `O=c1[nH]ncc(N2CCCC2)c1Cl` was tested. Which Potency did it give?
A: inconclusive: 100 µM [inhibitor, single point]

Q: Which Potency does the source give for `Nc1ccc(C(=O)O)cc1` here?
A: inactive

Q: `CCCOC(=O)Nc1ccc(S(=O)(=O)Nc2ncccn2)cc1` was tested. Which Potency did it give?
A: inactive

Q: `Cc1ccc(OCCSc2nc(-c3cccs3)nc3cc(=O)[nH]n23)cc1Cl` was tested. Which Potency did it give?
A: inconclusive: 89.1 µM [inhibitor, single point]

Q: For `CC1(C)Cc2c(c(-c3ccco3)nc3sc4c(NCCCO)ncnc4c23)CO1`, which Potency is on record?
A: inconclusive: 17.8 µM [inhibitor, full curve]

Q: Which Potency does the source give for `COc1ccc(-c2noc(-c3ccccc3Cl)n2)cc1OC` here?
A: inconclusive: 70.8 µM [inhibitor, single point]

Q: For `CCn1cc2nc(SCC(=O)Nc3ccc(OC)cc3OC)n(Cc3ccc(OC)cc3)c(=O)c2n1`, which Potency is on record?
A: inconclusive: 50.1 µM [inhibitor, partial curve, poor fit]

Q: Which Potency does the source give for `NS(=O)(=O)c1cc(C(=O)N=Nc2c(O)[nH]c3ccccc23)ccc1Cl` here?
A: active: 50.1 µM

Q: `COc1ccccc1CCNC(=O)Cc1c(C)c2c(O)cc(C)cc2oc1=O` was tested. Which Potency did it give?
A: inactive

Q: How did the Potency turn out when `Oc1ccc(Br)cc1C1C=C(c2ccc3c(c2)OCO3)NC(c2c(F)cccc2Cl)N1` (centres undefined) was run?
A: inconclusive: 12.6 µM [inhibitor, full curve, poor fit]

Q: Which Potency does the source give for `COC(=O)C1=C(CSc2nc3c(cc2C#N)CN(C)CC3)OC(N)=C(C#N)C1c1ccc(F)cc1` (centres undefined) here?
A: active: 14.1 µM
